Source: PubChem BioAssay AID493014 (National Center for Advancing Translational Sciences (NCATS), 2011)
Hit rate of the full screen: of about 340,000 compounds, about 170 (0.05%) were called active. Inconclusive results, whose numbers are uncertain, are shown with a selection of clear calls. Calls come from the whole dose curve; as a rule, active = well fitted inhibition curve with a large enough effect in the signal ratio, with a control signal flat (not every such curve was filed as active); inconclusive = small, poorly fitted or top-dose-only effect, or effect the other way, or a change in a side signal; inactive = flat fitted curve, though single readings scatter; the % refers to the signal ratio. Where the call is inconclusive, the potency comes from a doubtful curve fit.

Assay: qHTS Assay to Find Inhibitors of Chronic Active B-Cell Receptor Signaling;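 for activity change, negative = inhibition: plate controls were basal doxycycline-induced cells for no effect and cells given 10 µM MG132 for full effect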
Conditions: ABC-DLBCL IkBa-CBG/CBR reporter, luminescence ratio (green luciferase fused to IkBa over red control in TMD8 lymphoma cells), 4 h; activity change, negative = inhibition: at 46.1 µM (top of the series)
Outline: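 TMD8 ABC-DLBCL cells carrying doxycycline-inducible green luciferase fused to IkappaBalpha plus unfused red luciferase were exposed to compounds (up to 46 uM) for 4 hrs at 37C. Activity came from the overlap-corrected green/red luminescence ratio.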
Potency is the fitted concentration of half-maximal effect.

Row | SMILES | Potency | activity change, negative = inhibition
1 | COc1cccc(OC)c1/C=C/C(=O)NC1CCCCC1 | inconclusive: 14.1 µM [falling, partial curve, poor fit] | 
2 | CCc1cccc(NC(=O)Cn2c(=O)n3nc(-c4cccc(F)c4)nc3c3ccccc32)c1 |  | inconclusive: 23.6%
3 | CCOc1cc2[nH]c(=O)n(CCCCC(=O)N3CCN(c4ccccc4OC)CC3)c(=O)c2cc1OCC | inconclusive: 35.5 µM [falling, single point] | 
4 | COc1ccccc1-n1cnnc1SCC(=O)c1cc(C)n(Cc2cccs2)c1C |  | inactive
5 | CCN(CC)c1ccc(/C=N/n2c(-c3ccccc3Br)n[nH]c2=S)cc1 |  | inactive
6 | COc1ccc(NC(=O)CSc2nnc3ccc(-c4cccnc4)nn23)c(OC)c1 | inconclusive: 25.9 µM [falling, single point] | 
7 | CCN(CC(=O)Nc1ccc2c(c1)OCCO2)C(=O)c1cccc(OCC(C)C)c1 |  | inconclusive: 0.956%
8 | COc1ccc2[nH]c3c(c2c1)CCN1C(=O)N([C@@H](C)C(=O)NCCc2ccc(F)cc2)C(=O)[C@]31C |  | inconclusive: 3.16%
9 | O=C(CCc1nc2ccccc2c(=O)[nH]1)NNC(=O)COc1cccc(F)c1 |  | inconclusive: 3.42%
10 | CNC(=S)N(CCc1ccc(OC)c(OC)c1)C1CC(=O)N(c2ccccc2)C1=O (centres undefined) |  | inconclusive: -0.118%
11 | CCCN(Cc1cc2cc(C)ccc2[nH]c1=O)C(=O)c1cccc([N+](=O)[O-])c1 |  | inconclusive: 0.573%
12 | COc1ccc(-c2c(C)c3cc(OC(=O)N4CCOCC4)ccc3oc2=O)cc1OC | inconclusive: 14.1 µM [falling, single point] | 
13 | CCCC(CCC)C(=O)NCCN1CCOCC1 | inconclusive: 4.61 µM [rising, partial curve, poor fit] | 
14 | Cc1ccc(C(=O)N2CCN(CCNC(=O)C(=O)Nc3ccc(Cl)cc3)CC2)cc1 | inconclusive: 0.631 µM [falling, full curve] | 
15 | CCOc1ccc(NC(=O)C2CCCN(C(=O)Nc3ccccc3)C2)cc1 (centres undefined) | inconclusive: 5.8 µM [rising, full curve, poor fit] | 
16 | COc1ccc(N2C(=O)CSC23C(=O)N2c4c(cccc43)C(C)=CC2(C)C)cc1 (centres undefined) |  | inconclusive: 34.8%
17 | CC(C)(C)c1nnc(N/N=C/c2ccc(O)cc2)n(N)c1=O |  | inconclusive: 4.65%
18 | COc1ccccc1NC(=O)Cc1csc(NC(=S)Nc2ccccc2)n1 |  | inconclusive: -13.8%
19 | O=C(CN(c1ccc(F)cc1)S(=O)(=O)c1ccc2c(c1)OCCO2)NCc1ccncc1 |  | inconclusive: 0.422%
20 | COc1ccccc1/C=C1\SC(=S)N(CCC(=O)Nc2ccc(C(=O)O)c(O)c2)C1=O | inconclusive: 22.4 µM [falling, single point] | 
21 | Cc1cccc(OCCNC(=O)c2ccc(Cl)c(S(=O)(=O)NCc3cccnc3)c2)c1 | inconclusive: 20.6 µM [falling, partial curve] | 
22 | Cc1cc(C)cc(N(C(=O)Cn2nnc3ccccc32)C(C(=O)NCc2ccco2)c2ccncc2)c1 (centres undefined) |  | inconclusive: 28.3%
23 | O=C(COC(=O)C1CCN(c2ccc(C(F)(F)F)cn2)CC1)NC1CCCCC1 |  | inconclusive: 11.4%
24 | CSc1cccc(CN2CCC(CO)(Cc3ccccc3)CC2)c1 |  | inactive
25 | COc1ccc(-c2cc3nc(-c4ccccc4)cc(N4CCC(O)CC4)n3n2)cc1 | inconclusive: 22.4 µM [falling, single point] | 
26 | O=C(CS(=O)CC(=O)N(CC(=O)NC1CCCC1)c1ccccc1F)Nc1ccc(F)cc1 (centres undefined) |  | inactive
27 | Clc1ccc(CSc2ncccn2)cc1 |  | inconclusive: 2.09%

Single values from the results shown:
activity change, negative = inhibition, CCN(CC)c1ccc(/C=N/n2c(-c3ccccc3Br)n[nH]c2=S)cc1 reads inactive
activity change, negative = inhibition, CSc1cccc(CN2CCC(CO)(Cc3ccccc3)CC2)c1 reads inactive

Following part.

Row | SMILES | Potency | activity change, negative = inhibition
28 | COc1ccc([C@@H]2CC=C(C(=O)O)[C@H](c3cccc(Cl)c3)N2S(=O)(=O)c2ccccc2C)cc1 |  | inactive
29 | COc1ccc2sc(N(CCCN(C)C)C(=O)c3nc4ccccc4s3)nc2c1 |  | inactive
30 | C#CCOCCOCCOCCNc1nc(N2CCN(C(=O)CCCCCCCCCCNC(=O)[C@H]([C@@H](C)CC)n3cc(CCCCCN)nn3)CC2)nc(N2CCN(C(=O)CCCCCCCCCCNC(=O)[C@@H]([C@H](C)O)n3cc(C)nn3)CC2)n1 | inconclusive: 20.6 µM [rising, partial curve, poor fit] | 
31 | CC(C)COC(=O)n1c(SCC(=O)N(C)C)nc2ccccc21 | inconclusive: 4.47 µM [falling, partial curve, poor fit] | 
32 | COc1ccc(C(=O)Nc2ccc3cn[nH]c3c2)c(OC)c1 | inconclusive: 11.2 µM [falling, partial curve, poor fit] | 
33 | O=C(N/N=C/c1ccccc1C(F)(F)F)c1ccc(O)cc1 | inconclusive: 11.2 µM [falling, partial curve] | 
34 | COP(=O)(OC)c1nc(-c2cccc3ccccc23)oc1N1CCOCC1 | inconclusive: 9.2 µM [falling, partial curve, poor fit] | 
35 | CCCCOc1ccc(C2C(C(=O)c3ccc(C)o3)=C(O)C(=O)N2CC2CCCO2)cc1 (centres undefined) |  | inconclusive: 0.0639%
36 | CCc1ccc2[nH]c(O)c(N=NC3=NC(=O)CS3)c2c1 | inconclusive: 3.16 µM [falling, partial curve, poor fit] | 
37 | COc1ccc(CN(CC(=O)NCC2CCCO2)C(=O)CCC(=O)Nc2cc(C)on2)cc1 (centres undefined) |  | inconclusive: 13.6%
38 | CCC1(C(=O)c2ccccc2)C(c2ccc([N+](=O)[O-])cc2)C1(C(=O)OC)C(=O)OC (centres undefined) |  | inconclusive: -1.58%
39 | Cc1ccccc1/C=N/NC(=O)CSc1nc2ccccc2o1 |  | inconclusive: 8.71%
40 | Cn1nccc1/C=C(/C#N)S(=O)(=O)c1ccccc1 |  | inconclusive: -10.4%
41 | O=C(c1cccc([N+](=O)[O-])c1)c1cc2ccccc2o1 |  | inconclusive: 6.72%
42 | CCCn1nnnc1NCc1ccc(N(CC)CC)cc1 |  | inactive
43 | CCOC(=O)c1sc(NC(=O)c2cc3ccccc3o2)nc1C |  | inconclusive: 282%
44 | CC1CN(S(=O)(=O)c2ccc(C(=O)OCc3ccc(C#N)cc3)cc2)CC(C)O1 (centres undefined) |  | inactive
45 | COc1ccc(C(CNC(=O)c2oc3ccc(Br)cc3c2C)N2CCCCC2)cc1 (centres undefined) |  | inactive
46 | Fc1ccc2[nH]c3c(N4CCSCC4)ncnc3c2c1 |  | inconclusive: 7.08%
47 | COc1ccc(C(=O)NCc2nnc(SCC(=O)N3CCCC3)o2)cc1OC |  | inactive
48 | Cc1ccc2c(CN(C)Cc3cccc(Cl)c3)cc(=O)oc2c1C |  | inactive
49 | O=C(Nc1cccc([N+](=O)[O-])c1)c1cc2ccccc2cc1O | inconclusive: 35.5 µM [rising, single point] | 
50 | C/C(=N\NC(=O)COc1cccc(Br)c1)c1ccc2c(c1)OCCO2 |  | inactive
51 | CNC[C@H](CC1CCCCC1)NC[C@H](CO)NCCc1cccc(C(F)(F)F)c1 | inconclusive: 25.1 µM [falling, single point] | 
52 | CCOC(=O)C(NC(=O)c1ccc(F)cc1)(Nc1sc2c(c1C(N)=O)CCC2)C(F)(F)F (centres undefined) |  | inconclusive: -0.215%
53 | Cc1ccc(NC(=O)c2cc(C)no2)cc1 |  | inconclusive: 7.67%
54 | CC(C)(C)c1ccc(C(=O)NCCNC(=O)c2ccco2)cc1 |  | inconclusive: 0.298%

Row | SMILES | Potency | activity change, negative = inhibition
55 | O=C(OCc1ccccc1Cl)c1cccnc1Cl |  | inconclusive: -5.33%
56 | COc1ccc(F)cc1CN1CCN(c2cc(C)nc3c4c(C)cc(C)nc4nn23)CC1 |  | inactive
57 | CSc1ccc(CNc2ccc(C)c(C)c2)cc1 |  | inconclusive: 10.3%
58 | Clc1ccc2nc(-c3ccc(Cl)nc3)[nH]c2c1 |  | inconclusive: 13.1%
59 | O=C(c1cnn(-c2ccccc2)c1)c1cc(Br)ccc1O |  | inconclusive: 7.53%
60 | O=C(Nc1ccccc1O)C(c1ccccc1)c1ccccc1 |  | inconclusive: -3.81%
61 | Cc1sc2ncnc(N3CCC(C(=O)NNC(=O)COc4cccc(C(F)(F)F)c4)CC3)c2c1C |  | inconclusive: -11.8%
62 | Cc1cc(C)n(-c2cc(N3CCN(S(=O)(=O)c4ccc(C)c(C)c4)CC3)ccc2[N+](=O)[O-])n1 |  | inactive
63 | Cc1ccc(C)c(S(=O)(=O)Nc2ccc(O)c3ccccc23)c1 |  | inactive
64 | COCC(=O)N1CCC(Oc2ccc(C(=O)N3C[C@@H](C)O[C@@H](C)C3)cc2)CC1 |  | inactive
65 | CCSc1nsc(SCC)c1C(N)=O |  | inconclusive: 0.857%
66 | Cc1cc(C)nc(N(C#N)Cc2ccccc2Cl)n1 |  | inconclusive: -14.1%
67 | COC(=O)C1=C(C)N(Cc2ccccc2)C(=NCC(C)C)N[C@H]1c1cccc(C(F)(F)F)c1 |  | inconclusive: -12%
68 | CCN1C(=O)C(CC(=O)Nc2ccc(F)cc2)N(Cc2cccs2)C1=S (centres undefined) |  | inconclusive: -2.66%
69 | Cn1ccsc1=NC(=O)c1ccc([N+](=O)[O-])o1 |  | inactive
70 | Oc1cccnc1SCc1ccccc1 |  | inconclusive: 16%
71 | CC(C)(C)SCCNC(=O)/C=C/c1ccccc1 |  | inconclusive: -25.5%
72 | CCOC(=O)C1(CC2CCCCO2)CCN(S(=O)(=O)c2cc(C)cs2)CC1 (centres undefined) |  | inactive
73 | O=C(COc1ccc(S(=O)(=O)N2CCc3ccccc32)cc1Cl)NCc1ccccn1 |  | inactive
74 | O=c1c2cc(Br)ccc2[nH]c(=S)n1Cc1ccccc1 |  | inconclusive: -1.34%
75 | Cc1ccc(SCc2cn3cccnc3n2)cc1 |  | inconclusive: 1.55%
76 | COc1ccccc1/C=N/NC1=NCCCCC1 |  | inconclusive: -9.01%
77 | COc1cccc(C(=O)/C=C/Nc2ccc(S(=O)(=O)Nc3nc(C)cc(C)n3)cc2)c1 |  | inconclusive: -12.3%
78 | COc1ccc(CNC(=O)[C@H](C)N2C(=O)N3CCc4c([nH]c5ccc(OC)cc45)[C@@]3(C)C2=O)cc1 |  | inactive
79 | O=C(NCCc1ccc(Cl)cc1)C1CCN(Cc2cc3ccccc3n2Cc2ccccc2)CC1 |  | inconclusive: -22.4%

Entries listed so far that contain a COOH group:
Row | SMILES | Potency | activity change, negative = inhibition
20 | COc1ccccc1/C=C1\SC(=S)N(CCC(=O)Nc2ccc(C(=O)O)c(O)c2)C1=O | inconclusive: 22.4 µM [falling, single point] | 
28 | COc1ccc([C@@H]2CC=C(C(=O)O)[C@H](c3cccc(Cl)c3)N2S(=O)(=O)c2ccccc2C)cc1 |  | inactive
